We go through one compound from PMC9050340 (RSC Advances, 2020).

One data set has as its system MCF-7. The data set can be described thus: MTT antiproliferative. Type of data set: cell-based. The conditions noted are these: Homo sapiens, MCF7, read-out: Cytotoxicity (IC50 μM) MCF-7.
Another data set in a line: MTT antiproliferative. Type of data set: cell-based. As to conditions: human, MCF-10A cells (normal breast cell line).

As a reminder, the IC50 is the point on the concentration scale where inhibition reaches its midpoint. Consider `CN[C@@H]1C[C@H]2O[C@@](C)([C@@H]1OC)n1c3ccccc3c3c4c(c5c6ccccc6n2c5c31)C(=O)NC4` [Staurosporine, reference compound], for which the IC50 in the data set on MCF-7 was 3.44 ± 0.17 µM. In addition, half-maximal inhibition in “MTT antiproliferative” (IC50 at 48 h) required 11.4 ± 0.57 µM.
